Source: PubChem BioAssay AID540276 (National Center for Advancing Translational Sciences (NCATS), 2011)
Hit rate of the full screen: of about 300,000 compounds, about 5,400 (1.8%) were called active. The inconclusive results got no clear call from the source; some entries with a clear call stand among them for comparison. Calls come from the whole dose curve; tested in HEK293 cells. Potencies of inconclusive entries are doubtful fits and often do not repeat.

Assay: qHTS for inhibitors of binding or entry into cells for Marburg Virus
Settings: Marburg virus pseudotyped entry inhibition, cell reporter; activity change, negative = inhibition: at 37.8 µM (top of the series) unless noted
% is set by controls: 0 for no effect and ±100 for the full control effect; potency is the fitted concentration of half-maximal effect.

SMILES | Potency | activity change, negative = inhibition
O=C(CCNc1ccc(Cc2ccncc2)cc1)c1cccc([N+](=O)[O-])c1 | inconclusive: 11.2 µM [inhibitor, single point] | –
COc1ccc(OCc2cccc(C(=O)Nc3ccc(CN4CCCCC4)cc3)c2)cc1 | inconclusive: 15.8 µM [inhibitor, single point] | –
COc1cc2[nH]c(=O)n(CCCCCC(=O)NCCc3ccccc3)c(=O)c2cc1OC | – | inactive: 9.45% [at 46.1 µM]
Fc1ccc(-c2nnc(-c3ccc(Cl)cc3)o2)cc1 | inconclusive: 29.1 µM [inhibitor, partial curve, poor fit] | –
Cc1cc(C)c(C)c(S(=O)(=O)N2CCN(CC(=O)Nc3sccc3C#N)CC2)c1C | inconclusive: 16.4 µM [inhibitor, partial curve, poor fit] | –
CCc1cc2c(NCc3ccco3)ncnc2s1 | inconclusive: 35.5 µM [inhibitor, single point] | –
Cc1ccc(OCCC(=O)OCC(=O)NC(=O)c2ccccc2)cc1 | – | inactive: 0.814% [at 46.1 µM]
CCOC(=O)c1sc(Nc2ccc(Br)cc2)nc1C | inconclusive: 1.58 µM [activator, single point] | –
O=C(Nc1c(C(=O)Nc2cccc(F)c2)oc2ccccc12)c1cc2ccccc2o1 | – | inactive: 0.71% [at 46.1 µM]
CNC(=O)N(O)C1N(NC(=O)Nc2cccc3ccccc23)C(=S)SC1(C)C (stereo not drawn) | – | inactive: 4.04%
O=C(Cn1cc(C(=O)C2CCCCC2)c2ccccc21)NCC1CCCO1 (stereo not drawn) | inconclusive: 35.5 µM [inhibitor, single point] | –
CN(Cc1c(F)cccc1Cl)C(=O)c1cnc2ccccc2n1 | inconclusive: 6.31 µM [activator, single point] | –
Fc1ccccc1NC(=S)NNc1ncc(C(F)(F)F)cc1Cl | active: 7.94 µM | –
O=C1c2cccc3c([N+](=O)[O-])ccc(c23)C(=O)N1c1ccc(Cl)cn1 | inconclusive: 23.1 µM [inhibitor, single point] | –
CCCN1C(=O)c2cc(C(=O)Nc3ccccc3OC)ccc2C1Nc1ccccc1OC (stereo not drawn) | inconclusive: 22.4 µM [inhibitor, partial curve, poor fit] | –
O=C1CCCCCN1Cc1ccccc1 | inconclusive: 0.562 µM [inhibitor, partial curve, poor fit] | –
COc1cc(OC)c(N(C)S(=O)(=O)c2cccc(C(=O)NC(C)C3CC4CCC3C4)c2)cc1Cl (stereo not drawn) | inconclusive: 29.1 µM [inhibitor, partial curve, poor fit] | –
Cc1cccc(-c2nnc(SCC#N)n2C)c1 | inconclusive: 8.2 µM [inhibitor, partial curve, poor fit] | –
Cc1ccccc1NC(=O)C(=O)NCCCN1CCCC1=O | inconclusive: 17.8 µM [activator, partial curve, poor fit] | –
CCC(Br)C(=O)Nc1ccc(OC)cc1 (stereo not drawn) | – | inactive: 12.6% [at 46.1 µM]
FC(F)(F)c1cccc(Cn2nnnc2-c2cc(Cl)cc(Cl)c2)c1 | inconclusive: 23.1 µM [inhibitor, single point] | –
Cn1c(SCC(=O)N2CCOCC2)nc2cccnc21 | inconclusive: 6.31 µM [inhibitor, single point] | –
COc1ccc(O)c(/C=N/NS(=O)(=O)c2ccc(C)cc2)c1 | inconclusive: 10 µM [inhibitor, partial curve, poor fit] | –

2 entries drawn at random from the list so far:
SMILES | Potency | activity change, negative = inhibition
Cc1cc(C)c(C)c(S(=O)(=O)N2CCN(CC(=O)Nc3sccc3C#N)CC2)c1C | inconclusive: 16.4 µM [inhibitor, partial curve, poor fit] | –
Cn1c(SCC(=O)N2CCOCC2)nc2cccnc21 | inconclusive: 6.31 µM [inhibitor, single point] | –

Remaining list, next part.

SMILES | Potency | activity change, negative = inhibition
CC(C)=N/N=C(\c1cccc([N+](=O)[O-])c1)C12CN3CN(CN(C3)C1)C2 | inconclusive: 35.5 µM [activator, single point] | –
O=[N+]([O-])c1ccc(NC(c2ccccc2)c2ccc3cccnc3c2O)cc1 (stereo not drawn) | active: 1.41 µM | –
COC(=O)c1ccccc1NC(=O)c1cn(-c2ccc(C)c(C)c2)c(=O)c2ccccc12 | inconclusive: 35.5 µM [inhibitor, single point] | –
CCOC(=O)C1=C(COC(=O)[C@@H]2CCCN2S(=O)(=O)c2ccc(C)cc2)NC(=O)NC1C (stereo partly drawn) | – | inactive: 3.02%
CC(C)OC(=O)CN1C(=O)C(=O)c2ccccc21 | inconclusive: 32.6 µM [inhibitor, single point] | –
CCN1CCN(c2sc(S(C)(=O)=O)nc2S(=O)(=O)c2ccc(Cl)cc2)CC1 | inconclusive: 0.891 µM [inhibitor, full curve, poor fit] | –
CN(C)S(=O)(=O)c1cccc(-c2nn(-c3ccccc3)cc2/C=C(\C#N)c2nc3ccccc3[nH]2)c1 | inconclusive: 6.31 µM [inhibitor, single point] | –
CCOC(=O)C(C(=O)Nc1cccc(C)c1)C1CCCCC1 (stereo not drawn) | inconclusive: 1.3 µM [inhibitor, partial curve, poor fit] | –
CC(C)CC(c1nnnn1C(C)(C)C)N1CCN(Cc2ccccc2)CC1 (stereo not drawn) | inconclusive: 11.2 µM [inhibitor, partial curve] | –
Cc1cc(C(=O)Nc2cnc3ccccc3c2)ccc1[N+](=O)[O-] | inconclusive: 35.5 µM [inhibitor, single point] | –
COc1ccccc1N1C(=O)NC(=O)/C(=C/c2ccc3c(c2)Cc2ccccc2-3)C1=O | – | inactive: -2.07%
Cc1ccc(C2=NN(S(C)(=O)=O)C(c3ccc4nccnc4c3)C2)cc1 (stereo not drawn) | – | inactive: 37.1%
CC(=O)Nc1cccc(Oc2ccc3c(c2)C(=O)NC3=O)c1 | – | inactive: -19.5%
CCC(c1nnnn1CCc1ccccc1)N(Cc1ccco1)Cc1cc2c(C)ccc(C)c2[nH]c1=O (stereo not drawn) | active: 14.1 µM | –
COc1ccc(CN2CCN(Cc3ccccc3F)CC2)c(OC)c1 | inconclusive: 3.16 µM [inhibitor, partial curve, poor fit] | –
C/C=C/C=C/C(=O)OC(C)C(=O)Nc1cc([N+](=O)[O-])ccc1OC (stereo not drawn) | – | inactive: 10.7%
CCc1ccc(NC(=O)Cn2c(=O)oc3cc(S(=O)(=O)NCc4ccccc4)ccc32)cc1 | inconclusive: 22.4 µM [activator, single point] | –
Cc1ccc(CNC(=O)C2CCCN(c3nnc(-n4c(C)ccc4C)s3)C2)cc1 (stereo not drawn) | – | inactive: -13.5% [at 46.1 µM]
O=C(CSc1ccc(Cl)cc1)Nc1ncccn1 | – | inactive: 21%
O=C(COC(=O)c1cccc(Cl)c1Cl)NC1CCCC1 | inconclusive: 35.5 µM [activator, single point] | –
c1cnc(N2CCN(Cc3c[nH]c4ccccc34)CC2)nc1 | inconclusive: 1.58 µM [inhibitor, partial curve] | –
Cc1cc(-c2nc3ccccc3[nH]2)ccc1N | inconclusive: 10 µM [inhibitor, partial curve, poor fit] | –
COc1ccc(-c2cc(=NCCC(=O)O)c3cc(C)ccc3o2)cc1 | inconclusive: 2.82 µM [activator, partial curve, poor fit] | –

SMILES | Potency | activity change, negative = inhibition
COC(=O)C1=C(C)NC(=O)NC1c1ccccc1 (stereo not drawn) | – | inactive: 15.7%
CCOCCCNC(=O)c1cc(Cl)c(NC(=O)C2=C(C)OCCS2)cc1OC | – | inactive: 6.08% [at 46.1 µM]
Cc1ccc(C)c(N2CCN(c3nc4ccccc4c4nc(-c5cccnc5)nn34)CC2)c1 | – | inactive: 0.968% [at 46.1 µM]
C=CCn1c(O)c(N=Nc2ccccc2)c2ccccc21 | – | inactive: -14.4% [at 46.1 µM]
Cc1cccc(C(=O)Nc2onc(C)c2C#N)c1 | inconclusive: 14.6 µM [activator, single point] | –
CCn1cc(Cl)c(C(=O)Nc2ccccc2C(N)=O)n1 | inconclusive: 4.47 µM [activator, single point] | –
CCN(Cc1ccc2c(c1)OCCO2)C(=O)CN1C(=O)NC2(CCCCC2)C1=O | inconclusive: 0.355 µM [activator, partial curve, poor fit] | –
Nc1nc2c(c(=O)[nH]1)C(c1cccc3ccccc13)C1=C(N2)c2ccccc2C1=O (stereo not drawn) | inconclusive: 4.47 µM [inhibitor, single point] | –
CCCCCCC#Cc1cc(OC)c(OC)cc1C(N1CC(C)c2ccccc21)N1CC(C)c2ccccc21 (stereo not drawn) | inconclusive: 2.11 µM [activator, partial curve, poor fit] | –
COc1ccc(C2CC(c3cccs3)=NN2C(=O)CSc2nc(=O)n3ccccc3n2)cc1 (stereo not drawn) | inconclusive: 15.8 µM [inhibitor, single point] | –
CC1=C(C(=O)OCc2ccccc2)C(c2ccco2)C2=C(CC(C)(C)CC2=O)N1 (stereo not drawn) | inconclusive: 12.6 µM [inhibitor, partial curve, poor fit] | –
Cc1cccc(OCC(=O)Nc2ccncc2)c1 | inconclusive: 17.8 µM [inhibitor, partial curve, poor fit] | –
Nc1ccc(Br)c2c1C(=O)c1ccccc1C2=O | – | inactive: 39.6%
COc1ccc(CC(=O)NCc2ccc3c(c2)OCO3)cc1 | – | inactive: -0.6%
COc1cccc(-c2ccc(C#N)c(SCC(=O)NCCc3cccc(Cl)c3)n2)c1 | inconclusive: 8.2 µM [inhibitor, partial curve] | –
Fc1ccccc1CNc1ncnc2sccc12 | inconclusive: 2.51 µM [inhibitor, partial curve, poor fit] | –
Cn1c(=O)n(Cc2ccccc2)c(=O)c2c1nc1n2CCCN1C1CCCCC1 | inconclusive: 6.31 µM [inhibitor, single point] | –
Fc1ccc(/C=N/NC(=S)Nc2ccc(Cl)cc2)cc1F | inconclusive: 6.51 µM [inhibitor, single point] | –
CCCCn1c(N)c(N(CCOC)C(=O)CSc2n[nH]c(-c3ccc(OC)cc3)n2)c(=O)[nH]c1=O | inconclusive: 5.62 µM [inhibitor, single point] | –
O=C(NCc1ccccc1)C1CCN(C(=O)c2cnn(-c3ccccc3)c2-n2cccc2)CC1 | – | inactive: 27.1% [at 46.1 µM]
CCN(CC)S(=O)(=O)c1cc(C(=O)N(C)CC(=O)Nc2ccc(Cl)cc2)ccc1Cl | inconclusive: 12.6 µM [inhibitor, partial curve, poor fit] | –
CCOc1ccc(NC(=O)c2cccc(NC(=O)c3ccccc3)c2)cc1 | inconclusive: 0.398 µM [activator, single point] | –
